Results published in paper PMC4158420, “Crenactin from Pyrobaculum calidifontis is closely related to actin in structure and forms steep helical filaments” (Febs Letters, 2014).
Results are given in words; binding and its absence hold for the method and conditions named.

Biological target: Pyrobaculum calidifontis crenactin V339K (Pyrobaculum calidifontis) (UniProt A3MWN5)
Experiment: negative stain electron microscopy; 0.3 mg/ml purified crenactin polymerised with 2 mM ATP and 4 mM MgCl2 at room temperature for 30 min; carbon grids treated with poly-L-lysine, or 600 mM to 2 M KCl without poly-L-lysine; uranyl acetate stain; both purified

binding: no binding (tested: 0.3 mg/ml)
B1: Pyrobaculum calidifontis crenactin V339K (protein, UniProt A3MWN5 1-432)
chain: MGVISDAYRLKYTFGVDFGTSYVKYGPITLNEPKMVQTRGLFLRDLPESVKMRIPPDVLARGLVVGDEEVRKYLSSVRDVQRNLKYPLKDGVARRDDEEAWRVLKELARYTLAQFPVSDPEFAGWLVAVALSALAPDYMYKAIFDIYDELASEFKIYAVTILPQPLAVAIAENAVNCVIVEGGHGNIQVAPISFALIREGLVALNRGGAEANAITREILKDIGYSDIAREEYAVEVVKRAVGLVPRRLKEAIRAAKSDPDRFVTKVRLSPVVEVEIPREYAWTRFLIGEIVFDPNHEEIKSYIEQSRLRIENAVIGDVTLYGEMDVASAIITSLRNVSKEIQERVASQIILSGGAFSWRVPPGMEDVAADSVTRVKIALEEKSPALASKVEVRLVSEPQYSVWRGAVIYGYALPLSLEWSDTTREGWRFPRR
